Some of the results follow. Further columns of the screen follow, without active or inactive calls. The list favours compounds with an active or inconclusive main result. Words in brackets tell the shape of the fitted curve; partial curves, single points and poor fits give uncertain potencies.
Test: qHTS Assay for Lipid Storage Modulators in Drosophila S3 Cells;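 for cell number change: cells counted by Cell Tracker Red CMTPX staining in the red channel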
Details: BODIPY lipid droplet fluorescence, 18-24 h; for cell number change: measured here: cell count max response, cells fed with added oleic acid
Outline: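 Drosophila S3 cells loaded with oleic acid (400 uM, as added) and compounds at several concentrations; lipid droplets imaged by 488-nm laser-scanning cytometry, 500–530 nm intensity and object ratio to cell channel. Percent activity normalized to 20 uM Triacsin C.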

[1] = measured here: cell number channel AC50, cells fed with added oleic acid
[2] = measured here: lipid fluorescence (Fed channel) AC50, cells fed with added oleic acid

SMILES: CCCNS(=O)(=O)c1ccc(OCC(=O)Nc2ccc3c(c2)OCCO3)c(C)c1
- cell number change: 7.7%

SMILES: CCOc1ccccc1OCC(=O)Nc1ccc(Cl)cc1Cl
- cell number change: -1.19%
- AC50 [1]: 7.31 µM [rising, partial curve, poor fit]

SMILES: O=C(CN(C(=O)c1ccccc1Cl)C1CCCCC1)Nc1ccc(Cl)c([N+](=O)[O-])c1
- cell number change: 13.5%
- AC50 [2]: 25.9 µM [falling, single point]

SMILES: COC(=O)c1ccc2ccn(CC(=O)NC(C)C)c2c1
- cell number change: 23.2%
- AC50 [2]: 29.1 µM [rising, single point]

SMILES: COc1ccccc1-c1cc(C(=O)N/N=C/C=C/c2ccccc2[N+](=O)[O-])c2ccccc2n1
- cell number change: 46.6%
- AC50 [1]: 0.326 µM [rising, full curve]
- AC50 [2]: 2.91 µM [rising, partial curve]

SMILES: O=C(COC(=O)[C@H](Cc1c[nH]c2ccccc12)NC(=O)c1cccs1)NCc1ccccc1
- cell number change: 64.4%
- AC50 [1]: 29.1 µM [rising, single point]
- AC50 [2]: 29.1 µM [falling, single point]

SMILES: CC(C)(O)C#Cc1ccc(CN2CCC(CO)(CCc3ccccc3)CC2)cc1
- cell number change: 13.2%
- AC50 [2]: 0.366 µM [rising, partial curve, poor fit]

SMILES: O=C(CCN1C(=O)C2C3C=CC(C3)C2C1=O)Nc1nccs1 (stereo not given)
- cell number change: 24.8%

SMILES: CN(c1ccc(C(=O)NC2CC3CCC2C3)cc1)S(C)(=O)=O (stereo not given)
- cell number change: -14.6%

SMILES: CC(=O)c1ccc(S(=O)(=O)N2CCn3cccc3C2C)cc1 (stereo not given)
- cell number change: 5.06%
- AC50 [2]: 0.00461 µM [rising, full curve, poor fit]

SMILES: Cc1[nH]n(-c2ccccc2)c(=O)c1C=Nc1ccc(S(=O)(=O)N(C)C)cc1
- cell number change: 13.6%
- AC50 [2]: 0.651 µM [rising, partial curve, poor fit]

SMILES: COc1ccc(N2CCN(Cc3nc4c(c(=O)n(C)c(=O)n4C)n3Cc3cccc(C)c3)CC2)cc1
- cell number change: -24.9%
- AC50 [2]: 6.51 µM [falling, partial curve]

SMILES: Cc1ccc(S(=O)(=O)Cn2nnnc2C(CC(C)C)N2CCC(C(N)=O)CC2)cc1 (stereo not given)
- cell number change: -1.74%
- AC50 [2]: 29.1 µM [falling, single point]

SMILES: CCOC(CNC(=O)c1ccc2c(c1)nc(C)n2-c1cccc(F)c1)OCC
- cell number change: 9.2%
- AC50 [2]: 0.58 µM [rising, full curve, poor fit]

SMILES: O=C(OCC(=O)N1CCCC1=O)c1cc2ccccc2o1
- cell number change: 22.5%
- AC50 [2]: 20.6 µM [rising, single point]

SMILES: CC(C)Cn1c(N)c(C(=O)COC(=O)C2Cc3ccccc3CN2S(C)(=O)=O)c(=O)n(C)c1=O (stereo not given)
- cell number change: -53.4%
- AC50 [1]: 13 µM [falling, partial curve]
- AC50 [2]: 20.6 µM [falling, partial curve]

SMILES: O=C(NCCO)C(=O)NCC1CCCN1S(=O)(=O)c1cccs1 (stereo not given)
- cell number change: -22.9%

SMILES: Cn1cnnc1SCC(=O)Nc1ccccc1C(=O)NC1CCCC1
- cell number change: 15.9%
- AC50 [2]: 0.82 µM [falling, full curve, poor fit]

SMILES: COc1ccc(Nc2c3c(c(C#N)c4nc5ccccc5n24)CCC3)cc1
- cell number change: -33.5%
- AC50 [1]: 1.46 µM [falling, full curve]

SMILES: O=[N+]([O-])c1cccc(NC(=S)N2CCc3ccccc32)c1
- cell number change: -16.5%
- AC50 [2]: 0.13 µM [falling, full curve, poor fit]

SMILES: Cc1cccc(N2CCN(C(=O)c3nn(C)c4c3CS(=O)(=O)c3ccccc3-4)CC2C)c1 (stereo not given)
- cell number change: 12.2%

SMILES: Nc1nc2c(ncn2[C@H]2C[C@H](O)[C@@H](CO)O2)c(=O)[nH]1
- cell number change: -55.4%
- AC50 [1]: 18.4 µM [falling, partial curve, poor fit]
- AC50 [2]: 7.31 µM [falling, single point]

SMILES: COc1ccc(C(C(=O)NC2CCCC2)N(CCC(C)C)C(=O)CCC(=O)Nc2cc(C)on2)cc1 (stereo not given)
- cell number change: -21.8%

SMILES: CC(=O)Nc1ccc(S(=O)(=O)N2CCC(C(=O)NCc3cccnc3)CC2)cc1
- cell number change: -0.85%
- AC50 [1]: 0.146 µM [falling, full curve, poor fit]

SMILES: CC(C(=O)N1CCCc2ccccc21)N1CCN(c2ccccn2)CC1 (stereo not given)
- cell number change: 47.4%
- AC50 [1]: 29.1 µM [rising, single point]
- AC50 [2]: 29.1 µM [rising, single point]

SMILES: CCOC(=O)Cn1nnnc1C(CC)N(Cc1ccccc1)Cc1cc2cc(C)ccc2[nH]c1=O (stereo not given)
- cell number change: 30.6%
- AC50 [1]: 16.4 µM [rising, partial curve, poor fit]
- AC50 [2]: 20.6 µM [rising, partial curve]

SMILES: C=CCOc1cccc(C(=O)N2CCCC(Nc3ccc4c(c3)OCCO4)C2)c1 (stereo not given)
- cell number change: 7.33%

SMILES: O=C(CSc1nc2ccccc2nc1SCC(=O)N1CCCCC1)N1CCCCC1
- AC50 [2]: 32.6 µM [falling, single point]

SMILES: Cc1cc2c(ncn2C)c(NS(=O)(=O)c2ccc(F)cc2)c1C
- cell number change: -22%

SMILES: CCSc1nc2c(c(=O)[nH]1)C(c1cccs1)C(C(=O)OC)=C(C)N2 (stereo not given)
- cell number change: 23%
- AC50 [1]: 2.31 µM [rising, full curve, poor fit]
- AC50 [2]: 2.06 µM [rising, full curve, poor fit]

SMILES: O=C(Nc1cnn(Cc2ccc(Cl)cc2)c1)c1cnccn1
- cell number change: 1.27%
- AC50 [2]: 6.51 µM [rising, single point]

SMILES: COCC(C)NCc1ccccc1C (stereo not given)
- cell number change: 19.6%

SMILES: CCCn1c(-c2cccs2)nc2ccccc21
- cell number change: 32.7%
- AC50 [1]: 14.6 µM [rising, single point]
- AC50 [2]: 2.59 µM [rising, partial curve]

SMILES: Cc1noc2ncnc(N3CCN(c4cccc(Cl)c4)CC3)c12
- cell number change: -0.112%
- AC50 [2]: 0.82 µM [rising, full curve, poor fit]

SMILES: Cc1ccccc1Nc1nnc(SCc2cc(=O)n3ccsc3n2)s1
- cell number change: -34.5%
- AC50 [1]: 23.1 µM [falling, single point]

SMILES: Cc1ccc(/C=N/NC(=O)C2COc3ccccc3O2)s1 (stereo not given)
- cell number change: 109%
- AC50 [1]: 18.4 µM [rising, single point]

SMILES: Cn1ncc(C#N)c1NC(=O)C1CC(c2ccc(Cl)c(Cl)c2)=NO1 (stereo not given)
- cell number change: 2.43%
- AC50 [2]: 16.4 µM [rising, single point]

SMILES: Cc1c(Cl)cccc1NC(=O)CSc1nnc(C)n1CC1CCCO1 (stereo not given)
- cell number change: -2.63%
- AC50 [2]: 35.5 µM [falling, single point]

SMILES: CCOC(=O)C1C(=O)N(C(=O)c2cncc(Br)c2)CC1c1ccccc1 (stereo not given)
- cell number change: 3.95%
- AC50 [2]: 6.51 µM [falling, partial curve, poor fit]

SMILES: CCOC(=O)c1cc(NC(=O)c2c(C)noc2C)cc(C(=O)OCC)c1
- cell number change: 14.3%
- AC50 [2]: 2.31 µM [rising, partial curve]

SMILES: COc1cc(CNCCO)cc(Br)c1OCc1ccccc1
- cell number change: -6.37%

SMILES: O=C(NCCc1ccc(Cl)cc1)C1CCC(=O)N(C2CCCCCC2)C1 (stereo not given)
- cell number change: -7.63%
- AC50 [1]: 4.61 µM [rising, single point]

SMILES: CCOc1ccccc1C(=O)N[C@H](C(=O)Nc1nc2c(s1)CCCC2)C(C)C
- cell number change: 21.8%
- AC50 [2]: 0.103 µM [rising, full curve, poor fit]

SMILES: CCOCc1cc(=O)[nH]c(SC)n1
- cell number change: -0.195%
- AC50 [2]: 0.58 µM [falling, single point]

SMILES: C/C(=N\NC(=O)c1ccc(COc2ccccc2)cc1)c1ccncc1
- cell number change: -41.4%
- AC50 [1]: 29.1 µM [falling, single point]
- AC50 [2]: 0.231 µM [falling, full curve, poor fit]

SMILES: Cc1ccc(Nc2nc(Cl)nc(NC3CCCCC3)n2)cc1
- cell number change: -44%
- AC50 [1]: 14.6 µM [falling, single point]

SMILES: Cc1c(NC(=O)Nc2cccc(F)c2)c(=O)n(-c2ccccc2)n1C
- cell number change: 22.3%
- AC50 [2]: 23.1 µM [rising, single point]

SMILES: Cc1nn(Cc2ccc([N+](=O)[O-])cc2)c(=O)n1-c1ccccc1Cl
- cell number change: -17.8%
- AC50 [2]: 0.082 µM [falling, full curve, poor fit]

SMILES: CN(CC(=O)Nc1ccc(Cl)cc1)C(=O)CCc1nc2sc3c(c2c(=O)[nH]1)CCCC3
- cell number change: -45.6%
- AC50 [1]: 29.1 µM [falling, single point]
- AC50 [2]: 29.1 µM [falling, single point]

SMILES: COc1ccc(-c2nnn(CC(=O)c3c[nH]c4ccccc34)n2)cc1OC
- cell number change: -37.5%
- AC50 [2]: 2.31 µM [rising, full curve]

SMILES: CCOc1ccc(-c2c(C(=O)N/N=C/c3ccncc3)nnn2-c2nonc2N)cc1
- cell number change: -8.06%
- AC50 [2]: 3.66 µM [rising, single point]

SMILES: COC(=O)c1cc(NC(=O)C2C3C=CC(C3)C2C(=O)O)cc(C(=O)OC)c1 (stereo not given)
- cell number change: -2.32%
- AC50 [2]: 0.231 µM [falling, full curve, poor fit]

SMILES: Cc1ccnc(NC(=O)Nc2ccc(F)cc2)c1
- cell number change: -7.4%

SMILES: Nc1[nH]n2c(=O)c3c(nc2c1N=Nc1ccccc1)CCCC3
- cell number change: -19.8%

SMILES: CCOc1ccc(-c2nc(C#N)c(N3CCOCC3)o2)cc1
- AC50 [2]: 6.51 µM [rising, single point]

SMILES: Cc1oc(-c2cccc(Cl)c2)nc1CS(=O)(=O)CC(=O)NCc1ccco1
- AC50 [2]: 3.66 µM [rising, partial curve]

SMILES: COc1cc(/C=C(\C#N)C(=O)NCc2ccccc2)ccc1OCc1ccc(C(=O)O)cc1
- cell number change: -12%

SMILES: O=C(Nc1cccc(F)c1)C1C2C=CC3(CN(CCCN4CCOCC4)C(=O)C13)O2 (stereo not given)
- cell number change: 15.7%
- AC50 [2]: 23.1 µM [falling, single point]

SMILES: COc1cc(C(=O)Nc2nnc(C)s2)c([N+](=O)[O-])cc1OC
- cell number change: -13.7%
- AC50 [2]: 0.00461 µM [falling, full curve, poor fit]

SMILES: Cc1ccc2cc(C(c3nnnn3C3CCCC3)N(Cc3ccco3)Cc3cccs3)c(=O)[nH]c2c1 (stereo not given)
- cell number change: 55.8%

SMILES: COc1cc(NC(=O)C/C(C)=N/NC(=O)c2ccccn2)c(OC)cc1Cl
- cell number change: 11.5%
- AC50 [2]: 20.6 µM [rising, partial curve]

Reference: PubChem BioAssay AID2685 (National Center for Advancing Translational Sciences (NCATS), 2010)
